The chains behind the UniProt entries cited, without tags or fusion partners. Residues count along the entry.
UniProt P03069, 226-281: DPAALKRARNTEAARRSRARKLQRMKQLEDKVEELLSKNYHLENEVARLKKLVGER

In patent publication US20040214988:

Key:
[1] = target: Tfl-bZip (GCN4 bZip segment 226-281 with Tfl-GCN4-p1 dimerization domain) four d-position Leu of the GCN4-p1 zipper replaced by 5,5,5-trifluoroleucine (UniProt P03069); assay: EMSA; settings: no protein-bound DNA seen; synthetic protein
[2] = target: Leu-bZip (GCN4 bZip segment, residues 226-281) (UniProt P03069); assay: EMSA; settings: densitometry of mobility shift; site name for this value implied by order in text; synthetic protein

Question: Does “GATCCCAACACGTGTTGGGATC (double strand) [NON nonspecific oligonucleotide]” bind [1]?
Answer: Result: no binding

Question: How did the pKd [2] turn out when “TGGAGATGACGTCATCTCCT (double strand) [CREB site oligonucleotide]” was run?
Answer: The pKd was 8.32.

pKd: −log10 of the molar value. The exact form of at least one protein or probe is not confirmed. For some assays here: No signal at the amounts used counts as a negative.
